# Experimental data: the supplement of paper PMC3334620
# Whole data set: some 33,000 sequences, median “E-score (-0.5 to 0.5)” near -0.0014, cut for the highest 2% near 0.25. This is one part of the list.
# Target: T1, Cad1 (UniProt P24813)
# T1 sequence: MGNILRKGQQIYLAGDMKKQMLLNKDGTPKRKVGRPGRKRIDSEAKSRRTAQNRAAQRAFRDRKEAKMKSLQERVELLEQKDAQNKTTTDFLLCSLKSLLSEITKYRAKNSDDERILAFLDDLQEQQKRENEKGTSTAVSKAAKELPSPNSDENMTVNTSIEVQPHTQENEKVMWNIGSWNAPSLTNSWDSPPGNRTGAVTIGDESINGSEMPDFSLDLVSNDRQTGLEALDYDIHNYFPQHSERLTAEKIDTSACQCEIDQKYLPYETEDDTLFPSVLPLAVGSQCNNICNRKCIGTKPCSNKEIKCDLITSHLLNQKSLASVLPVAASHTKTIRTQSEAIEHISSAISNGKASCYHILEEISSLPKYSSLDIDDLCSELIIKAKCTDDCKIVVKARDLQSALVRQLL
# Assay: PBM E-score (8-mer binding enrichment) (E-score (-0.5 to 0.5)); higher = stronger / more preferred TF binding
# Conditions: protein concentration: 100 nM; construct: GST-full length
# Summary of the method: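 Yeast transcription factors, full-length or as DNA-binding domains, were expressed with a GST tag using PURExpress in vitro transcription/translation. At about 100-200 nM they were applied to universal all-10-mer Agilent arrays, double-stranded by primer extension on fresh or once-stripped slides. Fluorescent anti-GST detected bound protein, and masliner normalised the scans. E-scores for ungapped eight-base words, pooled with reverse complements, came from the Universal PBM Analysis Suite.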
row,Sequence,PBM E-score
1,CGACACAA,-0.0965
2,ACACAGCC,0.0823
3,AGGTCGTC,-0.0601
4,AATCACAT,0.062
5,AAGTACTT,-0.144
6,CAGATAGC,-0.113
7,GGCCGGGA,-0.0809
8,TACGTCTA,0.00372
9,TGTTAACA,0.159
10,ACTTTTAG,0.022
11,CATCTAGA,0.062
12,ATGGTCGC,-0.127
13,CATTGGCC,-0.231
14,GGATATAA,0.132
15,CCTACCCA,-0.157
16,GCTAGGAC,-0.0799
17,TCCCTCAA,-0.0739
18,ACGTGTCG,-0.0411
19,GATTCGGA,0.177
20,CCATGATA,-0.0251
21,AGAGACCT,-0.104
22,ATACTCAG,0.243
23,ACATAAGC,0.107
24,GTGCACCA,-0.0263
25,CGAGCTAA,-0.0827

row,Sequence,PBM E-score
1,AGGCCTAT,-0.0221
2,GCTAATGA,-0.0534
3,GATGCAAA,-0.0932
4,GCTGAGAC,0.156
5,AGACGGCT,-0.183
6,GCCGGGTA,-0.165
7,ACACTTGC,0.0216
8,GTATAACA,0.0937
9,GGCGTGAC,-0.0779
10,GATGCCGA,0.0131
11,GCTGGAGA,-0.0864
12,AACATCCT,-0.104
13,AAACCGGT,0.0496
14,CCGGTTCA,-0.177
15,CGTCCGGC,0.108
16,GAAGAGGC,-0.191
17,ATCCAACC,-0.0228
18,AGCGTAGG,-0.146
19,GCGGTCCA,-0.101
20,GAGGTCAA,-0.0204
21,ATGGTTCA,0.0602
22,CGGAAGGA,-0.0431
23,ACTGATAC,-0.0948
24,ATTGACAC,0.0055
25,AAATCTGC,0.0434

row,Sequence,PBM E-score
1,GCTCGCCC,-0.0659
2,AACCCGTA,-0.0712
3,CTGAGCGC,0.0445
4,AAGGAGTC,-0.203
5,CTAGCATA,-0.0751
6,GATAACTA,0.1
7,AAAATGCC,0.0875
8,CTTGATCC,0.00678
9,AAATGGTA,0.161
10,GTTCACAA,0.0957
11,CCTTAGAA,-0.113
12,CCCATACG,-0.226
13,AGATTCAA,0.0464
14,CAATATTG,0.239
15,AATTGTCA,0.161
16,CGGGGCCC,-0.0797
17,TAGACAGA,0.0711
18,ACCGATTG,0.201
19,GTAACGAA,0.143
20,AACATGCT,0.0561
21,CAGCCAGA,-0.15
22,GAAAGCTC,-0.312
23,AAAAGAGT,-0.165
24,AGAGAGGC,-0.297
25,CGTATGCA,0.0795

row,Sequence,PBM E-score
1,CTGGCATA,0.0405
2,TCTAGTCA,-0.0499
3,CACCACGC,-0.155
4,CATAAGCC,0.0914
5,CAACGAGG,0.0732
6,GTACATGA,-0.0468
7,GAGGGTCA,-0.25
8,TGCTCAAA,-0.149
9,CAACGAGA,0.035
10,CCGCGGTA,0.142
11,GCTCTTAC,0.19
12,ATATCGAG,0.134
13,ACGAAGCA,0.0556
14,GACTGAGC,-0.179
15,CATCATAC,0.0209
16,ATTATCGA,0.107
17,GGGGTCGA,-0.114
18,GCAAATAC,0.0468
19,CCCTCCTA,-0.207
20,AATGCTCT,-0.0761
21,AATGTTTG,-0.00136
22,GATGGAAC,-0.0151
23,GCCTAGTA,-0.147
24,CATTATAA,0.104
25,AGAGTTAC,-0.204

# Not a retest: entries from further up.
row,Sequence,PBM E-score
9,TGTTAACA,0.159
10,ACTTTTAG,0.022
11,CATCTAGA,0.062
12,ATGGTCGC,-0.127
13,CATTGGCC,-0.231
14,GGATATAA,0.132
15,CCTACCCA,-0.157
16,GCTAGGAC,-0.0799
17,TCCCTCAA,-0.0739
18,ACGTGTCG,-0.0411
19,GATTCGGA,0.177
20,CCATGATA,-0.0251
21,AGAGACCT,-0.104
22,ATACTCAG,0.243
23,ACATAAGC,0.107
24,GTGCACCA,-0.0263
25,CGAGCTAA,-0.0827
1,AGGCCTAT,-0.0221
2,GCTAATGA,-0.0534
3,GATGCAAA,-0.0932
4,GCTGAGAC,0.156
5,AGACGGCT,-0.183
6,GCCGGGTA,-0.165
7,ACACTTGC,0.0216
8,GTATAACA,0.0937
9,GGCGTGAC,-0.0779
10,GATGCCGA,0.0131
11,GCTGGAGA,-0.0864
12,AACATCCT,-0.104
13,AAACCGGT,0.0496
14,CCGGTTCA,-0.177
15,CGTCCGGC,0.108
16,GAAGAGGC,-0.191
17,ATCCAACC,-0.0228
18,AGCGTAGG,-0.146
19,GCGGTCCA,-0.101
20,GAGGTCAA,-0.0204
21,ATGGTTCA,0.0602
22,CGGAAGGA,-0.0431
23,ACTGATAC,-0.0948
24,ATTGACAC,0.0055
25,AAATCTGC,0.0434
1,GCTCGCCC,-0.0659
2,AACCCGTA,-0.0712

# Continuation:

row,Sequence,PBM E-score
1,AAGCATAG,-0.278
2,ACAGTTGG,-0.0629
3,ATCCTAAG,-0.0893
4,GTTTCCTA,0.0519
5,ACAGCAAC,0.198
6,CGTATCAC,0.148
7,CATTGTAC,0.0995
8,AAAACGGA,0.121
9,GATACAAA,0.199
10,AAAGACGT,0.0499
11,CATGGTAG,-0.0532
12,CAGCGGGG,-0.126
13,AAGCGTGG,0.0305
14,CCAATACG,-0.014
15,GACACGGA,0.123
16,AAGAAATT,0.235
17,GACCTACA,-0.0764
18,AGAACGCT,-0.0822
19,CTGCAATA,-0.0664
20,GAGATACA,0.184
21,AGGATCAG,-0.0986
22,TTCCAGAA,0.0621
23,CTTACCCA,0.123
24,TGTGACAA,0.0395
25,GGATTACC,0.108

row,Sequence,PBM E-score
1,GATAGGAA,0.0138
2,ACTTCAGC,0.0563
3,ACTTGTCA,0.0733
4,CGGAGGAC,-0.199
5,AACGGGTA,0.0638
6,AAAAGTAG,-0.0506
7,CACCGACA,-0.0582
8,AGAGTGAG,-0.0546
9,AGCAAGAC,-0.063
10,AAACACAA,0.201
11,ACACGCCG,0.126
12,GTGCCCGA,-0.0847
13,AAGTACTG,0.0463
14,AGACGCGA,0.0876
15,CTTGCGTA,0.132
16,ACATCCCG,0.147
17,ATATGTTA,-0.0486
18,TACCCTGA,-0.00497
19,CTGACGAC,0.0894
20,CTTGCAAG,0.199
21,ATAGCGTA,0.0528
22,AATGAGGA,-0.131
23,ACAGCATC,0.0717
24,ATTAATTG,0.313
25,ACGTTCCC,-0.0211

row,Sequence,PBM E-score
1,CTGGACAG,0.0236
2,CCAATAGC,-0.184
3,CACACCTC,0.0119
4,ATTTTAGG,0.0902
5,AAACGATA,0.128
6,ATGGGAAG,-0.266
7,AGAATCTA,-0.158
8,AACTTGTG,0.204
9,CGTCCAAA,0.18
10,ACAATGAA,0.186
11,GGCTTGAC,0.0803
12,CCCCCCAG,-0.475
13,CGCTGTGA,-0.0225
14,AGCCGGTA,-0.00366
15,ATTGGTCG,0.0539
16,GGGACAGA,0.0758
17,GATTACAA,0.294
18,CAAGACAC,0.157
19,CCGGCGCA,0.0634
20,CGTACTCA,-0.00506
21,CGCGACGC,0.0887
22,TCAAGCGA,-0.113
